For 94 compounds, EC50 results are on record in PubChem BioAssay AID434947 (Broad Institute, 2010).

Molecules are shown by their SMILES. Out of some 2,200 compounds screened, about 15 (0.7%) were called active.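 Rule for the calls: active = fitted half-maximal concentration for loss of luminescence signal no more than a set limit of log units above the top tested concentration; inconclusive = flat fit with 30 to 70% signal loss, or invalid fit; inactive = half-maximal concentration above that set limit.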 This is one part of the list.

This experiment can be described thus: inhibitors of ADP-Glo detection reagents, dose response, artefact control for GSK3beta inhibitor project, biochemical, luminescence, cell-free, homogeneous (AID 434947).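 Note: kinase-free counter screen of ADP-Glo detection reagents for GSK3beta hits.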 The following applies: 5 uM ADP. Background: In ADP-Glo the light output rises with the ADP produced.
In general, EC50 refers to the concentration giving half of the maximal effect. On to `Cc1nc(Nc2ccccc2)sc1C(=O)Nc1ccccc1`, for which the EC50 is inactive: > 30 µM. For `CN(C)Cc1c(C(=O)N/N=C/c2ccncc2)nnn1-c1nonc1N` the value was inactive: > 30 µM; for `COc1ccc(-c2nn(-c3ccccc3)cc2/C=N/N=C(N)N)cc1OC`, inactive: > 30 µM; for `COc1cc(/C=N/Nc2nc(Nc3ccccc3)nc(N3CCCCC3)n2)ccc1OCC(=O)O`, inactive: > 30 µM. In the case of `CCC1(CC)NC(=O)N(CC(=O)OCC(=O)Nc2sccc2C#N)C1=O`, the EC50 was inactive: > 30 µM.

For the compound `COc1ccc(OC)c(Nc2nc(N(C)c3ccccc3)nc(N)c2[N+](=O)[O-])c1`, the EC50 is inactive: > 30 µM. In the case of `CCOc1cc(C2c3c(n[nH]c3C)C(=O)N2c2ccc(C)cc2)ccc1O` (centres undefined) it was inactive: > 30 µM; in that of `COC(=O)Cc1ccc2sc(-c3ccccc3)nc2c1`, inactive: > 30 µM; in that of `NS(=O)(=O)c1cccc(NC(=O)COC(=O)/C(=C/c2cccs2)c2cccs2)c1`, inactive: > 30 µM.

Turning to `CS(=O)(=O)N1CCN(c2cccc(Cl)n2)CC1`, the EC50 is inactive: > 30 µM. In the case of `COC(=O)c1ccc(CSc2nnc(-c3ccncc3)o2)o1` it was inactive: > 30 µM. For `Cc1cc(Cl)nc(Cl)c1C(=O)N1CCOCC1` the value was inactive: > 30 µM.

`O=C(Nc1cc(-c2ccccc2)[nH]n1)c1ccccc1`: the EC50 is inactive: > 30 µM.

Consider `c1ccc(CNCC2COc3ccccc3O2)cc1` (centres undefined), for which the EC50 is inactive: > 30 µM. In the case of `COCCOC(=O)C1=C(C)Nc2ncnn2C1c1ccccc1` (centres undefined) it was inactive: > 30 µM; in that of `O=C(Nc1ccc(Cl)c(Cl)c1)Nc1ccccn1`, inactive: > 30 µM; in that of `CCC(C)Oc1cc(-c2ccnc(Nc3cccc(Cl)c3)n2)ccn1` (centres undefined), inactive: > 30 µM. Take `COc1cccc(C(=O)Nc2nc(-c3ccncc3)cs2)c1`: the EC50 is inactive: > 30 µM. In the case of `CCCc1cc(=O)oc2cc(C)cc(O)c12` it was inactive: > 30 µM; in that of `O=C(O)c1ccccc1Nc1ccccc1C(=O)O`, inactive: > 30 µM.

With `N#Cc1c(Cl)nc(-c2ccncc2)nc1-c1ccccc1`, the EC50 was inactive: > 30 µM. In the case of `Nc1nonc1-n1nnc(C(=O)N/N=C/c2ccccc2Br)c1CN1CCCC1`, the EC50 was inactive: > 30 µM. As to `CN(C)Cc1c(O)ccc2c(=O)c(-c3ccccc3)c(C(F)(F)F)oc12`, the EC50 was inactive: > 30 µM. Turning to `O=c1oc(-c2cccs2)nc2sc3c(c12)CCCC3`, the EC50 is inactive: > 30 µM. In the case of `N=C(N)N=Nc1c(O)[nH]c2ccc(Br)cc12` it was inactive: > 30 µM; in that of `CCCn1c(SCC(=O)Nc2ccc(Cl)cn2)nnc1C1CC1`, inactive: > 30 µM. As for `O=c1[nH]nc(SCCS(=O)(=O)c2ccc(F)cc2)n1-c1ccc2c(c1)OCCO2`, the EC50 is inactive: > 30 µM. In the case of `CC(C)CNC(=O)c1cccc(NC(=O)c2ccc(NC(=O)c3ccco3)cc2)c1` it was inactive: > 30 µM; in that of `COc1ccc2nc(NC(=O)CSC3=NCCS3)sc2c1`, inactive: > 30 µM. Regarding `COC(=O)c1nnn(-c2nonc2N)c1CSc1nc2ccccc2s1`, the EC50 is inactive: > 30 µM. For `CC(C)Cc1ccccc1O` the value was inactive: > 30 µM; for `COc1cccc(NC(=O)CN(C2=NC3CS(=O)(=O)CC3S2)c2cccc(C)c2)c1` (centres undefined), inactive: > 30 µM; for `O=C1CCCC2=C1C(c1cccs1)n1ncnc1N2` (centres undefined), inactive: > 30 µM. Regarding `Cn1c(SCC(=O)Nc2ccccc2)nc2ccccc2c1=O`, the EC50 was inactive: > 30 µM. Consider `Nc1nc(NCCO)nc(NC2CCCCC2)c1[N+](=O)[O-]`, for which the EC50 is inactive: > 30 µM.

For `O=C1Nc2ccccc2/C1=N\N1CCOCC1`, the EC50 was inactive: > 30 µM. In the case of `c1ccc(CSc2nnc(-c3cccnc3)o2)cc1` it was inactive: > 30 µM; in that of `CCCN(CCC)Cc1c(C(=O)N/N=C/C(C)=C\c2ccccc2)nnn1-c1nonc1N`, inactive: > 30 µM. `CC(C)Nc1nnc(SCC(=O)NCc2ccc3c(c2)OCO3)s1`: the EC50 was inactive: > 30 µM. For `O=C(Nc1ccsc1C(=O)NC1CC1)c1ccccc1` the value was inactive: > 30 µM; for `CCOC(=O)c1nnn(-c2nonc2N)c1CSc1ccccc1`, inactive: > 30 µM. For `CC1CN(C(=O)CCCN2C(=O)c3ccccc3C2=O)CC(C)O1` (centres undefined) the value was inactive: > 30 µM; for `COC(=O)C(CC(C)C)NC(=O)CSc1nc(-c2ccccc2)c(C#N)c(=O)[nH]1` (centres undefined), inactive: > 30 µM. In the case of `Cc1ccc(C)c(S(=O)(=O)N2CCN(C(C(=O)Nc3ccc(F)cc3)c3ccccc3)CC2)c1` (centres undefined) it was inactive: > 30 µM; in that of `CC1(C)CC(=O)C=C(Nc2ccc(F)cc2)C1`, inactive: > 30 µM; in that of `CCN(CC)Cc1c(C(=O)N/N=C/c2c(Cl)cccc2Cl)nnn1-c1nonc1N`, inactive: > 30 µM.

As to `O=c1c(-c2ccccc2)c(-c2ccccc2)oc2cc(O)cc(O)c12`, the EC50 is inactive: > 30 µM.

In the case of `O=c1c2[nH]c3ccccc3c2ncn1C1CCCCC1`, the EC50 is inactive: > 30 µM. For `Cc1cc(OCC(O)CNC(C)c2ccccc2)ccc1C(C)C` (centres undefined) the value was inactive: > 30 µM; for `COc1ccc(-c2nn(-c3ccccc3)cc2C(=O)O)cc1`, inactive: > 30 µM. In the case of `COc1ccccc1-c1cc(=O)c2c(O)ccc([N+](=O)[O-])c2o1` it was inactive: > 30 µM; in that of `COc1ccccc1-c1coc2c(CN(C)C)c(O)ccc2c1=O`, inactive: > 30 µM. For the compound `Cc1c(C#N)c(O)[nH]c(=O)c1N=Nc1ccc(Cl)c(C(=O)O)c1`, the EC50 was inactive: > 30 µM.

As for `O=C(CSc1ccc2nnc(-c3ccc(F)cc3)n2n1)NCc1ccco1`, the EC50 is inactive: > 30 µM. For `COc1ccccc1-c1nc(C(=O)NCC2CCCO2)cc2c1[nH]c1ccccc12` (centres undefined) the value was inactive: > 30 µM; for `O=C(Nc1ccccc1)Nc1cnccn1`, inactive: > 30 µM; for `CCc1cccc(C)c1NC(=O)CSc1nnc(CCCOc2ccc(Cl)cc2Cl)n1C`, inactive: > 30 µM. For the compound `COc1ccc(N(CN2C(=O)C3CC=CCC3C2=O)C(=O)c2ccco2)cc1` (centres undefined), the EC50 was inactive: > 30 µM. Consider `CCOc1ccccc1Nc1cc(C)nc2ccc(C)cc12`, for which the EC50 was inactive: > 30 µM. For `Cc1ccccc1-c1nnc(SCCOc2ccc3c(C)cc(=O)oc3c2)o1` the value was inactive: > 30 µM. In the case of `COCc1c(C(=O)N/N=C/c2ccncc2)nnn1-c1nonc1N` it was inactive: > 30 µM; in that of `COc1ccc(-c2nn(CCC(=O)O)cc2/C=N/NC(N)=S)cc1`, inactive: > 30 µM. For the compound `CCOC(=O)c1sc(=S)n(-c2ccccc2OC)c1N`, the EC50 is inactive: > 30 µM. As for `COc1cccc(C2Nc3ccccc3NC3=C2C(=O)CC(C)(C)C3)c1` (centres undefined), the EC50 is inactive: > 30 µM. For `Cc1cccn2c(=O)nc(SCC(=O)NC3CCCCC3)nc12` the value was inactive: > 30 µM. For `O=C(Nc1ccc(O)c2c(=O)cc(-c3ccccc3Cl)oc12)c1ccccc1Cl`, the EC50 is inactive: > 30 µM.

Take `Cc1cc(C(=O)OCCN2C(=O)c3ccccc3C2=O)c2ccccc2n1`: the EC50 was inactive: > 30 µM. For `COc1ccc(C(=O)OCCc2sc[n+](CC(=O)c3ccccc3)c2C)cc1` the value was inactive: > 30 µM; for `CN1CCc2[nH]c3ccc(C(=O)NN)cc3c2C1`, inactive: > 30 µM; for `CC[n+]1c(/C=C/N(C)c2ccccc2)oc2ccc(F)cc21`, inactive: > 30 µM. In the case of `COC(=O)c1cn(NC(=O)c2cccnc2)c(=O)c2ccccc12` it was inactive: > 30 µM. For `CCCCCOC(=O)C1=C(C)Nc2ncnn2C1c1cccs1` (centres undefined) the value was inactive: > 30 µM; for `COc1ccc2nc(NC(=O)CSc3n[nH]c(N)n3)sc2c1`, inactive: > 30 µM. On to `O=c1c(O)c(-c2ccc(O)c(O)c2)oc2cc(O)cc(O)c12`, for which the EC50 was inactive: > 30 µM.

`OCCCNc1nccc(-c2cc(Nc3cccc(Cl)c3)ncn2)n1`: the EC50 is inactive: > 30 µM. For the compound `CSc1nc(NCc2ccccc2)c2c3c(sc2n1)CN(C)CC3`, the EC50 is inactive: > 30 µM. `CN(Cc1nc2c(s1)CCCC2)C(=O)CCc1nnc(-c2ccc3c(c2)OCO3)o1`: the EC50 is inactive: > 30 µM.

On to `Cn1c(SCc2cccc(Br)c2)nnc1-c1ccncc1`, for which the EC50 was inactive: > 30 µM.

For `Nc1nc(NCC2CCCO2)nc(Nc2ccc(F)cc2)c1[N+](=O)[O-]` (centres undefined), the EC50 was inactive: > 30 µM. On to `CNC(=O)c1cc2cccc(OC)c2oc1=O`, for which the EC50 is inactive: > 30 µM.

`COc1ccc(-c2csc(N(CC3CCCO3)C(=O)c3ccccc3)n2)cc1` (centres undefined): the EC50 was inactive: > 30 µM. For `COC(=O)c1nnn(-c2nonc2N)c1CSc1ccccn1` the value was inactive: > 30 µM; for `O=C1Nc2cc(C(=O)NCCCN3CCCC3)ccc2S/C1=C\c1ccccc1`, inactive: > 30 µM; for `Nc1nonc1-n1nnc(C(=O)N/N=C/c2ccc(Cl)cc2Cl)c1CN1CCCCC1`, inactive: > 30 µM. For `Cc1nnc2n(-c3ccccc3)c(=O)c3c4c(sc3n12)CC(C)CC4` (centres undefined) the value was inactive: > 30 µM; for `Nc1nonc1-n1nnc(C(=O)N/N=C/c2c(F)cccc2Cl)c1-c1ccc2c(c1)OCO2`, inactive: > 30 µM; for `CN(Cc1c(C(=O)N/N=C/c2cccc(F)c2)nnn1-c1nonc1N)c1ccccc1`, inactive: > 30 µM.

Consider `Cc1ccc(N2CC(C(=O)Nc3c4c(nn3C(C)(C)C)CS(=O)(=O)C4)CC2=O)cc1` (centres undefined), for which the EC50 is inactive: > 30 µM. In the case of `CN1CCN(C(=O)CCS(=O)(=O)c2cc3c(cc2Cl)NC(=O)CO3)CC1` it was inactive: > 30 µM; in that of `CCOc1ccc2nc(NC(=O)CSc3nc(-c4ccccc4)c(C#N)c(=O)[nH]3)sc2c1`, inactive: > 30 µM; in that of `O=C(COc1ccccc1Cl)Nc1ccc2c(c1)OCCO2`, inactive: > 30 µM.

As for `COc1ccc(-n2sc3c(c2=S)-c2cc(OC)ccc2NC3(C)C)cc1`, the EC50 was inactive: > 30 µM.

On to `CCn1c(=O)cc(OCC(=O)N(C)c2ccccc2F)c2ccccc21`, for which the EC50 is inactive: > 30 µM.

As for `COc1cc(/C=N/O)ccc1OCc1ccccc1Cl`, the EC50 was inactive: > 30 µM.
